# Library screen at single concentrations

Chains of the proteins cited; added tags and fusions are not shown. Residues count along the entry.
UniProt A4I591, 1-473: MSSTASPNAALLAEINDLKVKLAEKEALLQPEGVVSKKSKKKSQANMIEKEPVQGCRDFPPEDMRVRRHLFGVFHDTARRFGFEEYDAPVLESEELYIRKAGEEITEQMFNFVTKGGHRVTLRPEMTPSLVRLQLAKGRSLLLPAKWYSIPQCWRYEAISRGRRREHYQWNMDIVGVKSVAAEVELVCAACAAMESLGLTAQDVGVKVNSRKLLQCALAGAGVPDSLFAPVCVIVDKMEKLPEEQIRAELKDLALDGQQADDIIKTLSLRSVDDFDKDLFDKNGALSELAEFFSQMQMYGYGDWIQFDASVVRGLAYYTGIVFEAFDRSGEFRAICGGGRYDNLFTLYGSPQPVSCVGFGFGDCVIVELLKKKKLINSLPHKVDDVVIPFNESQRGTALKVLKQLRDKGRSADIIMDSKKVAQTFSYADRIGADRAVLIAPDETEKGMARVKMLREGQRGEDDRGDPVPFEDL

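Enzyme assay of histidyl-tRNA synthetase; the read-out is not stated. Target: Histidine-tRNA ligase, Leishmania infantum (UniProt A4I591). Tested at 30 µM. Higher reads as stronger inhibition (inferred: compounds with an IC50 in retests scored well above the rest). The assay is labelled LdHisRS but filed under L. infantum. Of about 69,000 compounds tested this way, about 410 (0.6%) reached 50% or more in at least one test.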

Results are given as percent effect. How 0% and 100% were set is not recorded. Most values in the screen are low, and negative values occur. The compounds are a random part of those screened.

Compound: CN(C)C[C@]12COC[C@H]1CN(Cc1ccc3ccccc3n1)C2
effect: 5.263

Compound: COc1ccc2c(c1)C(=O)CC1(CCN(Cc3ccc(F)cc3)CC1)O2
effect: 1.98

Compound: Cc1cc(-c2nn(C)c(Cl)c2CN2CCOC(C(=O)O)C2)no1 (centres unmarked)
effect: 2.778

Compound: NC(=O)c1ccc(C2CN(Cc3ccc(F)cc3)CCO2)nc1 (centres unmarked)
effect: 4.255

Compound: CN(C(=O)c1ccccc1N(C)S(C)(=O)=O)c1ccc(C(C)(C)C)cc1
effect: 9.326

Compound: CCOc1cccc2c1OCC(C(=O)NS(=O)(=O)c1cncc(Br)c1)=C2
effect: 1.754

Compound: CCc1nc(CN(C)c2nccc(N3CCCC(O)C3)n2)no1 (centres unmarked)
effect: 1.399

Compound: CCOc1ccc(CN2C(=O)CC(C)(C)C2=O)nc1
effect: 6.897

Compound: CC(C)n1nc2c(cc1=O)CN(CCOc1ccc(C#N)cc1)CC2
effect: 17.5

Compound: c1cc2c(cc1-c1noc3c1CN(C1CCSCC1)CC3)OCO2
effect: 17.2

Compound: CCN1CCCN(S(=O)(=O)c2cnc3onc(C)c3c2)CC1
effect: 20.88

Compound: COCCn1c(=O)n(Cc2ccccc2C)c2cc(C(=O)O)ccc21
effect: 7.143

Compound: O=C1CNc2ncnc(Nc3cnn(Cc4cccc(F)c4)c3)c2N1
effect: 18.68

Compound: CN(CCO)CC1COCCN1C(=O)C1(c2cccs2)CCCC1 (centres unmarked)
effect: 13.56

Compound: CC(C)C(=O)NCc1ccnc(Oc2ccc(F)cc2)c1
effect: 26.03

Compound: COCc1noc(CCNC(=O)c2cc(C)c(C)[nH]c2=O)n1
effect: 3.125

Compound: N#Cc1ccccc1N1CCCN(C(=O)CCc2nccs2)CC1
effect: -5.618

Compound: O=C(Nc1cnccn1)[C@H]1CC[C@@H]2[C@@H](CCN2Cc2ccccn2)O1
effect: 15.96

Compound: CNC(=O)NC(=O)CN(CC(C)O)c1ccccc1 (centres unmarked)
effect: 0

Compound: Cc1ccn(Cc2nc(CC(C)C)no2)c(=O)c1
effect: 6.579

Compound: CC(C)N1CCC(CC(=O)NC[C@H]2CCc3ccccc3O2)CC1
effect: 16.13

Compound: COCC(=O)N1CCC(c2cncc(-c3cccc(F)c3)n2)CC1
effect: 12

Compound: Cc1nnc(SCCCNC(=O)Nc2ccc3c(c2)OCO3)s1
effect: -3.226

Compound: CNc1oc(-c2ccc(OC)c(S(=O)(=O)N3CCCCC3)c2)nc1C#N
effect: 7.767

Compound: Cc1sc2nc(SC(C)c3nc(C(C)C)no3)nc(N)c2c1C (centres unmarked)
effect: 13.33

Compound: CC(C)COCCC(=O)Nc1ccc2oc(=O)n(CCN(C)C)c2c1
effect: 13.39

Compound: Nc1cc(C(=O)N2CCCC3(C=Cc4ccccc4O3)CC2)ccn1 (centres unmarked)
effect: 6.25

Compound: Cc1c(Cl)ccc2ccc(NC(CO)CO)nc12
effect: 5.882

Compound: COC(=O)[C@H]1CN(S(C)(=O)=O)CCN1S(C)(=O)=O
effect: 30.56

Compound: CN(C1CCCN(c2ccccn2)C1)S(C)(=O)=O (centres unmarked)
effect: 13.04

Compound: c1nc2n(n1)CC(NCc1csc(-c3ccsc3)n1)CC2 (centres unmarked)
effect: 27.66

Compound: Cc1occc1C(=O)N1CCC2(CCN(Cc3nccs3)C2)CC1
effect: 6.604

Compound: COc1ccc(CCNC(=O)C(C)Nc2cccc(C)c2C)cc1 (centres unmarked)
effect: 4.505

Compound: CCn1cc(Cl)c(C(=O)NCCCO)n1
effect: 6.897

Compound: c1coc(CN2Cc3nccn3CC(Cn3cncn3)C2)c1 (centres unmarked)
effect: 7.619

Compound: O=C(C1=CCCC1)N1C[C@@H]2COC[C@]2(COCc2ccncc2)C1
effect: 19.09

Compound: COCCN1CCOCC2(CCCN(Cc3ccc(C)o3)C2)C1 (centres unmarked)
effect: 9.434

Compound: CC(C)c1cc(C(F)(F)F)n2nc(CCC(=O)O)nc2n1
effect: 11.43

Compound: CN(CC1CCOCC1)C(=O)NCCCN1CCCCC1
effect: 5.263

Compound: CC(OCC1CC1)C(=O)Nc1ccn(Cc2ccccc2)n1 (centres unmarked)
effect: 6.202

Compound: OC1(CN2CCCCC2)CCN(c2ccc(C(F)(F)F)cn2)C1 (centres unmarked)
effect: 6.993

Compound: Cc1cc(S(=O)(=O)N2CCc3ccc(F)cc32)cc(C(=O)O)c1C
effect: 1.351

Compound: CC(=O)N1CCN(CCCOc2ccccc2F)CC(C(N)=O)C1 (centres unmarked)
effect: 6.207

Compound: CN(Cc1ccc(F)cc1)C(=O)CN1CCCCC1Cn1cncn1 (centres unmarked)
effect: 11.83

Compound: CCN1CCN(CCNC(=O)c2ccn(-c3ccc(F)cc3)n2)CC1
effect: 6.14

Compound: Cc1c(C(C)NC(=O)C2CCCC2)cnn1C (centres unmarked)
effect: 10.71

Compound: CCNc1ncc(C(=O)N(C)Cc2nc3cc(Cl)ccc3[nH]2)cn1
effect: -23.08

Compound: CCOCC(=O)NS(=O)(=O)c1ccc(F)cc1C(F)(F)F
effect: 16.81

Compound: Cc1cc2n(n1)CC(CNCc1ccc(-n3cccn3)nc1)CN2 (centres unmarked)
effect: 21.6

Compound: O=C(O)c1ccccc1-n1cnc(CN2CCCc3ccccc32)c1
effect: 21.28

Compound: CCCN1CCCC2(CCN(C(=O)CCCn3cncn3)C2)C1=O (centres unmarked)
effect: 5.556

5 of the entries, repeated:

c1cc2c(cc1-c1noc3c1CN(C1CCSCC1)CC3)OCO2 gave 17.2%.
N#Cc1ccccc1N1CCCN(C(=O)CCc2nccs2)CC1 gave -5.618%.
Cc1c(C(C)NC(=O)C2CCCC2)cnn1C (centres unmarked) gave 10.71%.
O=C1CNc2ncnc(Nc3cnn(Cc4cccc(F)c4)c3)c2N1 gave 18.68%.
CC(C)C(=O)NCc1ccnc(Oc2ccc(F)cc2)c1 gave 26.03%.

Source: ChEMBL document CHEMBL3988442, “University of Dundee, Small-Polar-MMV Screening Library” (2021).